This is a selection; strong and weak results do not stand in their true shares.
Compound: COC(=O)C#Cc1ccccc1 [methyl 3-phenylpropiolate]
Experiment: log2 ratio of iodoacetamide-alkyne labeling of the cysteine site, DMSO over compound (competition); higher = stronger covalent engagement of the cysteine by the compound, active = 1 or more
Settings: 500 µM; treatment time 1 h; system: HEK293T cell lysate
How it was run: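 Three replicates, each with duplicate channels, were prepared from HEK293T lysate (2 mg/mL) treated with vehicle or electrophile at 500 µM for 1 h at ambient temperature. Iodoacetamide alkyne was then applied for 1 h, and samples were clicked to sCIP-TMT reagents, pooled, trypsin-digested overnight at 37 °C, enriched on streptavidin, acid-eluted and analysed on Orbitrap Eclipse LC-MS/MS with FAIMS, with FragPipe quantification. The log2 competition ratio per cysteine is the mean control-channel divided by the mean compound-channel reporter intensity. Cysteines quantified in only one replicate were left out.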

Amino acid sequences for entries named in this document (tags omitted). A change or cut given only in a name is not applied to a line headed by its entry.
UniProt Q96R06: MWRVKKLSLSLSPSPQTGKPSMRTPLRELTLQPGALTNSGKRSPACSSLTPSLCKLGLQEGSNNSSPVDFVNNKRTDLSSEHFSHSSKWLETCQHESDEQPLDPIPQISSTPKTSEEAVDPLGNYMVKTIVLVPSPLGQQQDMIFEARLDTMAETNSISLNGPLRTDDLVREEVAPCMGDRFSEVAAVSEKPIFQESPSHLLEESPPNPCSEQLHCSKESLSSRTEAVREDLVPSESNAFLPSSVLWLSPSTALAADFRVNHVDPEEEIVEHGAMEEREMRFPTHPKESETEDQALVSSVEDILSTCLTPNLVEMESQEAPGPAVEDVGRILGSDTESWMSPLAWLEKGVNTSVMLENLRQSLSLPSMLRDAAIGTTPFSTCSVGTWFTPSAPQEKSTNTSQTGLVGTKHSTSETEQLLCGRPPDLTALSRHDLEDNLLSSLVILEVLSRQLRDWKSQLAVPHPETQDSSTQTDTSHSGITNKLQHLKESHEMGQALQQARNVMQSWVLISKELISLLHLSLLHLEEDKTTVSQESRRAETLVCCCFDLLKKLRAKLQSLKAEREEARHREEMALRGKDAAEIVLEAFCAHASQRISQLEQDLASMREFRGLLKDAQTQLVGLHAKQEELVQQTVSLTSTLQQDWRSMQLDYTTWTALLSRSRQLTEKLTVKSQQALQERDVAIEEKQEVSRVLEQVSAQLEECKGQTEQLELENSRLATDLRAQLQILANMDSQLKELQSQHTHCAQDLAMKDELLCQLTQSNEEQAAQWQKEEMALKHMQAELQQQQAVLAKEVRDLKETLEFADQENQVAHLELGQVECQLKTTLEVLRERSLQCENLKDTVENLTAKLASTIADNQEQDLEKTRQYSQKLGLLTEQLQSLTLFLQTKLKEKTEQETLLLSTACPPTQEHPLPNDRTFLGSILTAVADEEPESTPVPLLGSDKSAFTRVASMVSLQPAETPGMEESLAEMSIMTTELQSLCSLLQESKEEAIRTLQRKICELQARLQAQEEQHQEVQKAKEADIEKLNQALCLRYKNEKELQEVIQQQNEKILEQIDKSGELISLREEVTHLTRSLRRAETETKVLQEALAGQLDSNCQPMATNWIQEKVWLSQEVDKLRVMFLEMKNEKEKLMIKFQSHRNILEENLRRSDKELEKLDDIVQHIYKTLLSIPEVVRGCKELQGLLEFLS
UniProt Q99497, whole entry, looked up: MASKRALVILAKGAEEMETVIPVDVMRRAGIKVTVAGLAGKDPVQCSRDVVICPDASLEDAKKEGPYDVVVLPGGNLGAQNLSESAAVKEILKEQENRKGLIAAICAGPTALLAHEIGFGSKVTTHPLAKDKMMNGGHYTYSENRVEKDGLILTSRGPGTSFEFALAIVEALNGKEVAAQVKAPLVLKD
UniProt Q96KR1: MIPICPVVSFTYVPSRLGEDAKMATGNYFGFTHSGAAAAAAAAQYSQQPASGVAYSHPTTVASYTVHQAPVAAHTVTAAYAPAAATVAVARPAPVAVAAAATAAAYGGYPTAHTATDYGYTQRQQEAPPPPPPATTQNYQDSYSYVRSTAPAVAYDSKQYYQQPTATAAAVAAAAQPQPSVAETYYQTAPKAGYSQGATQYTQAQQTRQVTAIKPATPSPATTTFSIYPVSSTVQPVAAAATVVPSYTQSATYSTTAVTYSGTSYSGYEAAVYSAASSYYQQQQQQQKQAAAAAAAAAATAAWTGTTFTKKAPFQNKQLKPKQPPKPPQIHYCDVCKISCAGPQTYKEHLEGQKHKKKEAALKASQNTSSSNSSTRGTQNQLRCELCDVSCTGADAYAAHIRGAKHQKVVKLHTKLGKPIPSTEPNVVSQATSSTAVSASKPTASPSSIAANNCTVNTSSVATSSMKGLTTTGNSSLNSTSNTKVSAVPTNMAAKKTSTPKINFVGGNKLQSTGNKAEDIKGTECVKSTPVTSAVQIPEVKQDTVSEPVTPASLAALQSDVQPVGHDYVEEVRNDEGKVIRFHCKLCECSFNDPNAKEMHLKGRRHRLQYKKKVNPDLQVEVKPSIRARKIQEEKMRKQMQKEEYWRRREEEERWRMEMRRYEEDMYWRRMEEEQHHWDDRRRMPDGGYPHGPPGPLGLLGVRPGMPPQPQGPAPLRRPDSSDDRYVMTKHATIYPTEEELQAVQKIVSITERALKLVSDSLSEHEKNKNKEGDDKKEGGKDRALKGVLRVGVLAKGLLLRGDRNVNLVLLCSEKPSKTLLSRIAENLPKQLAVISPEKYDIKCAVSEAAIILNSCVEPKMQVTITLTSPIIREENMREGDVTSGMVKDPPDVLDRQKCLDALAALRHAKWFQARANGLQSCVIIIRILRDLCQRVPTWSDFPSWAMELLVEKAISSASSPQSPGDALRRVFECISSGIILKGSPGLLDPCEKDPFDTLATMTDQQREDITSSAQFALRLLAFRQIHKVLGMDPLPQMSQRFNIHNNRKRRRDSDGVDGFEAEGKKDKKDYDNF
UniProt Q96SK2: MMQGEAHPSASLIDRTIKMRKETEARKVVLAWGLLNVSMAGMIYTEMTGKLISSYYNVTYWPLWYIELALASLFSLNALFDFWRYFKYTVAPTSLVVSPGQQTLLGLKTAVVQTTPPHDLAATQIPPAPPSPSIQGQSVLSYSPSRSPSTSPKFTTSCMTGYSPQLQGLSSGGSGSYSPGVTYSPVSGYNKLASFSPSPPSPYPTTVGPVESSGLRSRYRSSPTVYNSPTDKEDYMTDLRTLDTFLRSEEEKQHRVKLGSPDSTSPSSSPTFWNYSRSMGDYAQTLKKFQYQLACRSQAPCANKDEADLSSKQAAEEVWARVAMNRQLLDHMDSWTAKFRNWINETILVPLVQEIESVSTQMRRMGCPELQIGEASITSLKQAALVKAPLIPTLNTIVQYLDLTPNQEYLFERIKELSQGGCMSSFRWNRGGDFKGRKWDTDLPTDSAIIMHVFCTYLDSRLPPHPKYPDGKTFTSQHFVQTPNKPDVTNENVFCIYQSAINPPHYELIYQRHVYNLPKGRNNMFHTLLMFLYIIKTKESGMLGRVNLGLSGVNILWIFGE
UniProt Q99829: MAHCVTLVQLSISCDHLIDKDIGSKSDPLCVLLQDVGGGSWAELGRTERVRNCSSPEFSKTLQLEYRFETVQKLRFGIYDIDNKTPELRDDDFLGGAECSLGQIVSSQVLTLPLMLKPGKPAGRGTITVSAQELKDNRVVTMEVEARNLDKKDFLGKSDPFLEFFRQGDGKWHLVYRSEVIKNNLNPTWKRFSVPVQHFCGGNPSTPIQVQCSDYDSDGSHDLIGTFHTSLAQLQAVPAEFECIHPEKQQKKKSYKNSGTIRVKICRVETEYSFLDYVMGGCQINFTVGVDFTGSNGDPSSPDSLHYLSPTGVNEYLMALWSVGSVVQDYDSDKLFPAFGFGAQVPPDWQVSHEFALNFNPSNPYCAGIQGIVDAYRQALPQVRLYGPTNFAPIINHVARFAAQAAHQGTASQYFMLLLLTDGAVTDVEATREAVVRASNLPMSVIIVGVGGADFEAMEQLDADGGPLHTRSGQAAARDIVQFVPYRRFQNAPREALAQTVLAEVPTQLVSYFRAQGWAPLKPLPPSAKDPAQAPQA
UniProt Q99570, whole entry, looked up: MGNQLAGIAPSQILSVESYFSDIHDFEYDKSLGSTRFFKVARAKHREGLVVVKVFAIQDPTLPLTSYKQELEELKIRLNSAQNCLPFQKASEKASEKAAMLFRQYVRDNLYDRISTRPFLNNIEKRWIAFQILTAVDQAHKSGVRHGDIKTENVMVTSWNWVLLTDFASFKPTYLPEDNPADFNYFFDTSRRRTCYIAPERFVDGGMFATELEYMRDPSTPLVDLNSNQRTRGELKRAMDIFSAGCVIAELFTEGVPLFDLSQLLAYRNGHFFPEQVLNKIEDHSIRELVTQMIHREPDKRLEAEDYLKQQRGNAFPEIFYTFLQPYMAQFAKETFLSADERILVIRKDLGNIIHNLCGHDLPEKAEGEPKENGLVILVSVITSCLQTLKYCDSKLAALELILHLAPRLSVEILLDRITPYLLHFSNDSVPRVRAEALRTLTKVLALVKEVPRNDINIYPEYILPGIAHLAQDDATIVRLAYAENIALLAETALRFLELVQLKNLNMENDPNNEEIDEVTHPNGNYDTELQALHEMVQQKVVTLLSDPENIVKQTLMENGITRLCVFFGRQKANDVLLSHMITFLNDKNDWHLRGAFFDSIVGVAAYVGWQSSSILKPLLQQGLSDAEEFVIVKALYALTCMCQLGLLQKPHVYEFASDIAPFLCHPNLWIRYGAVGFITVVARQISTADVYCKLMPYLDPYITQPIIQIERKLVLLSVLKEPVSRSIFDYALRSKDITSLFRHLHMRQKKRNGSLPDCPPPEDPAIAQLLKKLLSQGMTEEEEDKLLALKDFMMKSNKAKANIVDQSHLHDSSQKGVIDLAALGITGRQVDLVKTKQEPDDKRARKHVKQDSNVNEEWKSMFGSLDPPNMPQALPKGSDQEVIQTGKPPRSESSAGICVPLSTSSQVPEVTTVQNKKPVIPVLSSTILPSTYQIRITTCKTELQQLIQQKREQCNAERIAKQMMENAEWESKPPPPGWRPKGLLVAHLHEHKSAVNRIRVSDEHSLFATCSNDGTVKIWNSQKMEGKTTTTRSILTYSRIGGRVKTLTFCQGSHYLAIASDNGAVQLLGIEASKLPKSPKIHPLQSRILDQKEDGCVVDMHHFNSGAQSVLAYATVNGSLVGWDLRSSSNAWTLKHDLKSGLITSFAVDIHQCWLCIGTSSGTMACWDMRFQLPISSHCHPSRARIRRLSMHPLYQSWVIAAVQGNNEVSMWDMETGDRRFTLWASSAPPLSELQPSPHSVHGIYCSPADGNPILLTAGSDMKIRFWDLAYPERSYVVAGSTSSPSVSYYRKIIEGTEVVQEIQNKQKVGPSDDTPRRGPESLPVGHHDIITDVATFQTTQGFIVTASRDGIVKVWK
UniProt Q96P48: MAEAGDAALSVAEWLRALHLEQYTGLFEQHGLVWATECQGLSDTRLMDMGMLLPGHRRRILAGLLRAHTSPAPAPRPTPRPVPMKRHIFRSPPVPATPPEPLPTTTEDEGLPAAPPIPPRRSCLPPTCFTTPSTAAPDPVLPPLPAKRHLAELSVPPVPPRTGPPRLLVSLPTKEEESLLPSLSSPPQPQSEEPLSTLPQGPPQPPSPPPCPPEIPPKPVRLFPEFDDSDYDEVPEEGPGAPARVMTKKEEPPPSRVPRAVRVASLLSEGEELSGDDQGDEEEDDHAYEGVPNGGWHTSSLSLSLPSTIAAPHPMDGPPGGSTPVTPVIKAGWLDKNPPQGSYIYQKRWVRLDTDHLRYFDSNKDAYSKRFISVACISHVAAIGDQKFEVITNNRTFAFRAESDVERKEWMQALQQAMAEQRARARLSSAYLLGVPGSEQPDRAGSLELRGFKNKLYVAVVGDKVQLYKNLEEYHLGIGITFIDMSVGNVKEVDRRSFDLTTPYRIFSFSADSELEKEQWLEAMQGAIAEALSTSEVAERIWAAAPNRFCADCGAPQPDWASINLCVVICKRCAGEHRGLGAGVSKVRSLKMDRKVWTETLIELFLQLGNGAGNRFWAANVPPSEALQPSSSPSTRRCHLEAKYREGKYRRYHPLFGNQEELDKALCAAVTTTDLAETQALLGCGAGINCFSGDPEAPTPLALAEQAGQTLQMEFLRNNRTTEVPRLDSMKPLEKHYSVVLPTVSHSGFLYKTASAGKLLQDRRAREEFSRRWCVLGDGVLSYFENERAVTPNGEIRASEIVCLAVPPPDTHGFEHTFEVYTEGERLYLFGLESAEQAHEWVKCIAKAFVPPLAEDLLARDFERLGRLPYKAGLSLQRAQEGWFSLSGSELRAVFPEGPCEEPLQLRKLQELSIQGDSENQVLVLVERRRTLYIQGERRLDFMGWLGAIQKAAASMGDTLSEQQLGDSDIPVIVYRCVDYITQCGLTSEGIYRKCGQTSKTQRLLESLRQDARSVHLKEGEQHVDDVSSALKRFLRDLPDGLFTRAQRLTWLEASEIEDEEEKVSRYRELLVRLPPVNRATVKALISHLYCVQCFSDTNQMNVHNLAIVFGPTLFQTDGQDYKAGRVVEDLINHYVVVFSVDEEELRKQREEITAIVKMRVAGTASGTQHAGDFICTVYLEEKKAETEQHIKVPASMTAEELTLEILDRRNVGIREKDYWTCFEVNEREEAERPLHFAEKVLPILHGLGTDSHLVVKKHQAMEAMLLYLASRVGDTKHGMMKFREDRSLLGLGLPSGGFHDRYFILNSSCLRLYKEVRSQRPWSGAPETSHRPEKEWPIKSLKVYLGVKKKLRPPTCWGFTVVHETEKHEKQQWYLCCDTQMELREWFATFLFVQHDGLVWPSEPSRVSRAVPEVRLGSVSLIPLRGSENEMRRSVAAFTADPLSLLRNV

Row | Target | log2 ratio of iodoacetamide-alkyne labeling
1 | SPAG5 C382 (UniProt Q96R06) | inactive: 0.73
2 | PARK7 C53 (UniProt Q99497) | inactive: -0.0888
3 | CCT7 C310 (UniProt Q99832) | inactive: 0.193
4 | PARK7 C106 (UniProt Q99497) | inactive: 0.0126
5 | UniProt Q99590_C566 | inactive: 0.15
6 | CCT7 C29 (UniProt Q99832) | active: 1.51
7 | MYBBP1A C942 (UniProt Q9BQG0) | inactive: 0.523
8 | ZFR C844 (UniProt Q96KR1) | inactive: 0.319
9 | ACO2 C740 (UniProt Q99798) | inactive: 0.656
10 | UniProt Q99590_C506 | inactive: -0.154
11 | TMEM209 C367 (UniProt Q96SK2) | inactive: 0.176
12 | CPNE1 C53 (UniProt Q99829) | inactive: -0.0731
13 | WRNIP1 C272 (UniProt Q96S55) | inactive: 0.116
14 | PIK3R4 C899 (UniProt Q99570) | inactive: 0.087
15 | ARAP1 C900 (UniProt Q96P48) | inactive: 0.272

A few values from above.
In log2 ratio of iodoacetamide-alkyne labeling, PIK3R4 C899 (UniProt Q99570) reads inactive: 0.087
In log2 ratio of iodoacetamide-alkyne labeling, PARK7 C53 (UniProt Q99497) reads inactive: -0.0888
